Test results from paper doi:10.1101/2020.08.19.257287.
Results are given in words; binding and its absence hold for the method and conditions named. In cells and extracts the contact can be indirect. Where a sequence is shown, tags or fusion partners need not be part of it.

How the values were obtained:
Assay in all cases: co-IP
FLAG-TPD52 (human) = biological target: T1, FLAG-TPD52 (human) (UniProt P55327)
T1 sequence: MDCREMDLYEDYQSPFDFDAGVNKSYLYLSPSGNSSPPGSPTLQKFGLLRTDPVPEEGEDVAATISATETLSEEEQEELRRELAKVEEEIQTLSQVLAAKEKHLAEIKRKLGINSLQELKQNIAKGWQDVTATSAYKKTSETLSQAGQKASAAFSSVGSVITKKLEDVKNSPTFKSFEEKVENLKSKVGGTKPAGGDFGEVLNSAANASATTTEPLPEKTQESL

FLAG-TPD53 (human) = biological target: T2, FLAG-TPD53 (human) (UniProt Q16890)
T2 sequence: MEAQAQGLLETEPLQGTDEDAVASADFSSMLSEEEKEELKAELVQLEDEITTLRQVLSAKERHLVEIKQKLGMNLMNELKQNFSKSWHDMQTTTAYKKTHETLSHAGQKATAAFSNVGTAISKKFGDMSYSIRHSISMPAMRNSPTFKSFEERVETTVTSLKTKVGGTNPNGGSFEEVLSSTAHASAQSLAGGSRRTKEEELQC

FLAG-TPD54 (human) = FLAG-TPD54 (human) (UniProt O43399)

Measured: binding

B1: GFP-FKBP-TPD54(L53P,L67P) (protein, UniProt O43399 1-206)
chain: MDSAGQDINLNSPNKGLLSDSMTDVPVDTGVAARTPAVEGLTEAEEEELRAEPTKVEEEIVTLRQVPAAKERHCGELKRRLGLSTLGELKQNLSRSWHDVQVSSAYVKTSEKLGEWNEKVTQSDLYKKTQETLSQAGQKTSAALSTVGSAISRKLGDMRNSATFKSFEDRVGTIKSKVVGDRENGSDNLPSSAGSGDKPLSDPAPF
no binding: all assays above
